US5411707A, “Vacuum extractor incorporating a condenser column” (priority 1994, dated 1995)
Read-outs that look alike come from different tables or passages of the source.

Tests used:
[1] = Method detection limits for volatile organic analytes in water (Table 6); conditions: 5 mL water, 4 ppb; for Method Detection Limit, External Standard Method: average of three nonconsecutive-day studies; for Method Detection Limit, Internal Standard Method: d3-vinylchloride internal standard
[2] = Recovery of volatile organic analytes from spiked water and cod liver oil/water emulsion (Table 3); conditions: 10 min, condenser -10° C., ± one sigma; for Recovery, H2O/Oil 20 mL: 1 g cod liver oil and 20 ml water emulsion; for Recovery, H2O/Oil 5 mL: 1 gram cod liver oil and 5 ml water emulsion; for Recovery, Water 5 mL: 5 mL water, relative to internal standard d3-vinylchloride; for Recovery, Water 20 mL: 20 mL water, relative to d3-vinylchloride
[3] = Recovery of volatile organic analytes from spiked soil (Table 5); conditions: 50 ppb, condenser -10° C.; for Recovery, Soil/Oil Water: 5 g soil + 1 g cod liver oil + water slurry; for Recovery, Soil/Oil: 5 g soil + 1 g cod liver oil, spiked using 0.2 ml water; for Recovery, Soil/Water: 5 g soil + 5 ml water slurry, 10 min
[4] = Method detection limits for volatile organic analytes in soil (Table 7); conditions: 4 ppb, average of three nonconsecutive-day studies, values marked ^c: MDL exceed concentration studies
[5] = 1 gram cod liver oil, composite of 25, 50 and 200 ppb spikes, 10 min, condenser -10° C.

## ClC(Br)Br [Dibromochloromethane]
[5]
  Oil Recovery: 25 ± 6%
[1]
  Method Detection Limit, External Standard Method: 2.1 PPb
  Method Detection Limit, Internal Standard Method: 1.9 PPb
[2]
  Recovery, H2O/Oil 20 mL: 50 ± 10%
  Recovery, H2O/Oil 5 mL: 47 ± 9%
  Recovery, Water 5 mL: 90 ± 12%
  Recovery, Water 20 mL: 87 ± 20%
[3]
  Recovery, Soil/Oil Water: 47 ± 4%
  Recovery, Soil/Oil: 65 ± 22%
  Recovery, Soil/Water: 74 ± 18%
[4]
  MDL, External Standard Method: 2.9 ppb
  MDL, Internal Standard Method: 1.5 ppb

## S=C=S [Carbon Disulfide]
[5]
  Oil Recovery: 92 ± 14%
[1]
  Method Detection Limit, External Standard Method: 2.5 PPb
  Method Detection Limit, Internal Standard Method: 1.9 PPb
[2]
  Recovery, H2O/Oil 20 mL: 95 ± 29%
  Recovery, H2O/Oil 5 mL: 115 ± 20%
  Recovery, Water 5 mL: 110 ± 8%
  Recovery, Water 20 mL: 109 ± 30%
[3]
  Recovery, Soil/Oil Water: 53 ± 11%
  Recovery, Soil/Oil: 92 ± 19%
  Recovery, Soil/Water: 50 ± 20%
[4]
  MDL, External Standard Method: 3.2 ppb
  MDL, Internal Standard Method: 2.3 ppb

## C=CCl [Vinyl Chloride]
[5]
  Oil Recovery: 81 ± 12%
[1]
  Method Detection Limit, External Standard Method: 4.0 PPb
  Method Detection Limit, Internal Standard Method: 2.6 PPb
[2]
  Recovery, H2O/Oil 20 mL: 87 ± 27%
  Recovery, H2O/Oil 5 mL: 118 ± 28%
  Recovery, Water 5 mL: 105 ± 9%
  Recovery, Water 20 mL: 98 ± 19%
[3]
  Recovery, Soil/Oil Water: 79 ± 30%
  Recovery, Soil/Oil: 79 ± 23%
  Recovery, Soil/Water: 60 ± 25%
[4]
  MDL, External Standard Method: 7.1 ppb
  MDL, Internal Standard Method: 6.3 ppb

## c1ccccc1 [Benzene]
other
  Oil Recovery: 81 ± 12
[2]
  Recovery, H2O/Oil 20 mL: 68 ± 10%
  Recovery, H2O/Oil 5 mL: 80 ± 12%
  Recovery, Water 5 mL: 86 ± 9%
  Recovery, Water 20 mL: 83 ± 15%
[3]
  Recovery, Soil/Oil Water: 83 ± 5%
  Recovery, Soil/Water: 54 ± 12%

## ClC=C(Cl)Cl [Trichloroethene]
[5]
  Oil Recovery: 50 ± 7%
[1]
  Method Detection Limit, External Standard Method: 2.5 PPb
  Method Detection Limit, Internal Standard Method: 1.7 PPb
[2]
  Recovery, H2O/Oil 20 mL: 62 ± 9%
  Recovery, H2O/Oil 5 mL: 61 ± 9%
  Recovery, Water 5 mL: 86 ± 8%
  Recovery, Water 20 mL: 82 ± 18%
[3]
  Recovery, Soil/Oil Water: 48 ± 7%
  Recovery, Soil/Oil: 76 ± 16%
  Recovery, Soil/Water: 52 ± 16%
[4]
  MDL, External Standard Method: 3.0 ppb
  MDL, Internal Standard Method: 1.7 ppb

## C=COC(C)=O [Vinyl Acetate]
[5]
  Oil Recovery: 114 ± 33%
[2]
  Recovery, H2O/Oil 20 mL: 74 ± 11%
  Recovery, H2O/Oil 5 mL: 87 ± 21%
  Recovery, Water 5 mL: 72 ± 13%
  Recovery, Water 20 mL: 82 ± 22%
[3]
  Recovery, Soil/Water: 83 ± 12%

## ClC(Cl)Cl [Chloroform]
other
  Oil Recovery: 60 ± 7
[1]
  Method Detection Limit, External Standard Method: 2.7 PPb
  Method Detection Limit, Internal Standard Method: 2.5 PPb
[2]
  Recovery, H2O/Oil 20 mL: 70 ± 9%
  Recovery, H2O/Oil 5 mL: 75 ± 12%
  Recovery, Water 5 mL: 94 ± 14%
  Recovery, Water 20 mL: 86 ± 16%
[3]
  Recovery, Soil/Oil Water: 126 ± 4%
  Recovery, Soil/Water: 114 ± 28%
[4]
  MDL, External Standard Method: 2.6 ppb
  MDL, Internal Standard Method: 1.9 ppb

## CC(Cl)(Cl)Cl [1,1,1-Trichloroethane]
[5]
  Oil Recovery: 88 ± 40%
[1]
  Method Detection Limit, External Standard Method: 1.6 PPb
  Method Detection Limit, Internal Standard Method: 1.9 PPb
[2]
  Recovery, H2O/Oil 20 mL: 73 ± 9%
  Recovery, H2O/Oil 5 mL: 81 ± 14%
  Recovery, Water 5 mL: 96 ± 13%
  Recovery, Water 20 mL: 90 ± 15%
[3]
  Recovery, Soil/Water: 137 ± 23%
[4]
  MDL, External Standard Method: 2.4 ppb
  MDL, Internal Standard Method: 1.7 ppb

## ClC(Cl)(Cl)Cl [Carbon Tetrachloride]
[5]
  Oil Recovery: 54 ± 5%
[1]
  Method Detection Limit, External Standard Method: 1.5 PPb
  Method Detection Limit, Internal Standard Method: 1.9 PPb
[2]
  Recovery, H2O/Oil 20 mL: 64 ± 12%
  Recovery, H2O/Oil 5 mL: 72 ± 17%
  Recovery, Water 5 mL: 91 ± 14%
  Recovery, Water 20 mL: 90 ± 18%
[3]
  Recovery, Soil/Water: 88 ± 59%
[4]
  MDL, External Standard Method: 1.7 ppb
  MDL, Internal Standard Method: 1.5 ppb

## Cl/C=C/Cl [trans-1,2-Trichloroethane]
[5]
  Oil Recovery: 79 ± 14%
[3]
  Recovery, Soil/Oil Water: 63 ± 5%
  Recovery, Soil/Oil: 105 ± 14%
  Recovery, Soil/Water: 59 ± 19%

## Clc1ccccc1 [Chlorobenzene]
[5]
  Oil Recovery: 24 ± 4%
[1]
  Method Detection Limit, External Standard Method: 2.4 PPb
  Method Detection Limit, Internal Standard Method: 1.9 PPb
[2]
  Recovery, H2O/Oil 20 mL: 43 ± 10%
  Recovery, H2O/Oil 5 mL: 40 ± 9%
  Recovery, Water 5 mL: 88 ± 12%
  Recovery, Water 20 mL: 86 ± 21%
[3]
  Recovery, Soil/Oil Water: 38 ± 4%
  Recovery, Soil/Oil: 47 ± 17%
  Recovery, Soil/Water: 61 ± 18%
[4]
  MDL, External Standard Method: 2.6 ppb
  MDL, Internal Standard Method: 1.3 ppb

## Cc1ccccc1C [Ortho Xylene]
other
  Oil Recovery: 45 ± 19
[1]
  Method Detection Limit, External Standard Method: 2.4 PPb
  Method Detection Limit, Internal Standard Method: 1.9 PPb
[2]
  Recovery, H2O/Oil 20 mL: 42 ± 10%
  Recovery, H2O/Oil 5 mL: 34 ± 9%
  Recovery, Water 5 mL: 86 ± 10%
  Recovery, Water 20 mL: 83 ± 19%
[3]
  Recovery, Soil/Oil Water: 48 ± 8%
  Recovery, Soil/Oil: 56 ± 16%
  Recovery, Soil/Water: 66 ± 20%
[4]
  MDL, External Standard Method: 4.1 ppb
  MDL, Internal Standard Method: 3.5 ppb

## ClCBr [Bromochloromethane, reference compound]
[5]
  Oil Recovery: 61 ± 8%
[2]
  Recovery, H2O/Oil 5 mL: 79 ± 10%
  Recovery, Water 5 mL: 82 ± 12%
  Recovery, Water 20 mL: 83 ± 19%
[3]
  Recovery, Soil/Oil Water: 112 ± 15%
  Recovery, Soil/Oil: 175 ± 14%
  Recovery, Soil/Water: 111 ± 24%

## Cc1ccccc1 [Toluene]
other
  Oil Recovery: 48 ± 9
[2]
  Recovery, H2O/Oil 20 mL: 50 ± 9%
  Recovery, H2O/Oil 5 mL: 51 ± 10%
  Recovery, Water 5 mL: 89 ± 11%
  Recovery, Water 20 mL: 81 ± 24%
[3]
  Recovery, Soil/Water: 50 ± 13%

## [2H]c1c([2H])c([2H])c(Cl)c([2H])c1[2H] [Chlorobenzene-d5, reference compound]
[5]
  Oil Recovery: 24 ± 4%
[2]
  Recovery, H2O/Oil 5 mL: 41 ± 10%
  Recovery, Water 5 mL: 90 ± 11%
  Recovery, Water 20 mL: 88 ± 20%
[3]
  Recovery, Soil/Oil Water: 34 ± 5%
  Recovery, Soil/Oil: 50 ± 10%
  Recovery, Soil/Water: 63 ± 15%

## Fc1ccc(F)cc1 [1,4-Difluorobenzene, reference compound]
[5]
  Oil Recovery: 49 ± 5%
[2]
  Recovery, H2O/Oil 5 mL: 65 ± 10%
  Recovery, Water 5 mL: 89 ± 11%
  Recovery, Water 20 mL: 83 ± 17%
[3]
  Recovery, Soil/Oil Water: 48 ± 7%
  Recovery, Soil/Oil: 77 ± 10%
  Recovery, Soil/Water: 54 ± 13%

## [2H]c1c([2H])c([2H])c(C([2H])([2H])[2H])c([2H])c1[2H] [Toluene-d8, reference compound]
other
  Oil Recovery: 41 ± 5
[2]
  Recovery, H2O/Oil 20 mL: 54 ± 8%
  Recovery, H2O/Oil 5 mL: 52 ± 9%
  Recovery, Water 5 mL: 93 ± 11%
  Recovery, Water 20 mL: 85 ± 18%
[3]
  Recovery, Soil/Oil Water: 39 ± 4%
  Recovery, Soil/Oil: 62 ± 15%
  Recovery, Soil/Water: 50 ± 14%
